For three substances, binding results are on record in publication PMC11897865.

Protein sequences, listed by entry. Tags and fused reporters are not part of them. Lines headed by an entry give the natural chain unless they say otherwise; changes in a name come on top. Residues count along the entry.
UniProt P31424, residues 21-1203: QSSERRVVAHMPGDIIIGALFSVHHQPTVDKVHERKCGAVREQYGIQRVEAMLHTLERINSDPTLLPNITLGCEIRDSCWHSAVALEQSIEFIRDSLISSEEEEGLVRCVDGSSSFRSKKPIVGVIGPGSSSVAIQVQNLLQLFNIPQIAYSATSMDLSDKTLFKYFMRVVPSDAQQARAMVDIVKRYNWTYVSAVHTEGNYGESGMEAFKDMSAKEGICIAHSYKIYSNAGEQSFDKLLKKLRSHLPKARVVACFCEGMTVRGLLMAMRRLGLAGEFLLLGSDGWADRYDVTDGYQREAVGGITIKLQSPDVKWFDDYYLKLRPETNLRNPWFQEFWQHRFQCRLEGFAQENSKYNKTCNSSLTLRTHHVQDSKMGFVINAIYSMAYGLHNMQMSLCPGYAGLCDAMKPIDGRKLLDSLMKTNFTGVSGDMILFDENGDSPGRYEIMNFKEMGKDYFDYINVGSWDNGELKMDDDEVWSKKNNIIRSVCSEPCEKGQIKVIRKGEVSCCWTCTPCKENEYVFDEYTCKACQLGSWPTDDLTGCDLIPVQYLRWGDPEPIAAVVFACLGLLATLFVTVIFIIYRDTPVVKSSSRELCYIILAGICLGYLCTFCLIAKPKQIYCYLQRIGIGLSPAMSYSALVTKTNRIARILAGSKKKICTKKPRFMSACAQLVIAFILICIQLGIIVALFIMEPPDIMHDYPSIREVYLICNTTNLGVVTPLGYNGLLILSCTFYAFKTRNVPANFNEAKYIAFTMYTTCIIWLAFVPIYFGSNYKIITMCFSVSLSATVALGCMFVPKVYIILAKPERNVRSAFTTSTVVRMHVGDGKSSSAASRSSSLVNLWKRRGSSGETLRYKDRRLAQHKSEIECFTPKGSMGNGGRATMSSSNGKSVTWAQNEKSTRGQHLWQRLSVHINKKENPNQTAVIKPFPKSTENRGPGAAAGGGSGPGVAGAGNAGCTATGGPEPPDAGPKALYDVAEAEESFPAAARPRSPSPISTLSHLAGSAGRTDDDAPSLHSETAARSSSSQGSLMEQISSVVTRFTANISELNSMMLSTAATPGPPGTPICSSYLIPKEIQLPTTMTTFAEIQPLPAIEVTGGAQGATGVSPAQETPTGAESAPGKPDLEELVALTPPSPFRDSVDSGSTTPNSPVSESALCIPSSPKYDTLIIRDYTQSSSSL
UniProt P30543: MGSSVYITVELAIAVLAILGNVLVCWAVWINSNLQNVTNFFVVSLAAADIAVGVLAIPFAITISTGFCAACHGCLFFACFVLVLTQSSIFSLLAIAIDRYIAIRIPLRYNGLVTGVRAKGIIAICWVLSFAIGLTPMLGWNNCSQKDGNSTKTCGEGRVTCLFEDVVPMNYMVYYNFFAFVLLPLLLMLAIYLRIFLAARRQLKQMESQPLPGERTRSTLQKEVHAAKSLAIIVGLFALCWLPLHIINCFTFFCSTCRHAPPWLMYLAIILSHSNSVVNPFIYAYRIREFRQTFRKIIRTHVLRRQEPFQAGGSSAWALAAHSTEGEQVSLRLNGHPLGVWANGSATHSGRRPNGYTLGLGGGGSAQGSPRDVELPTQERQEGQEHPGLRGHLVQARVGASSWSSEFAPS

Test [1] addresses mGluR5 (rat (endogenous in primary rat microglia)) (UniProt P31424). The test can be described thus: co-IP; anti-A2aR or anti-mGluR5 antibody (or IgG) on Protein A/G magnetic beads, lysate of primary rat microglia treated with chronic hypoxia, overnight at 4°C; Western blot. (In western blotting, separated proteins are transferred to a membrane and probed.)
Test [2] concerns the target Adenosine A2A receptor (rat (endogenous in primary rat microglia)) (UniProt P30543). The test can be described thus: proximity ligation; in situ PLA (Duolink) on fixed primary rat microglia; blank, 20 or 40 uM glutamate, hypoxia, hypoxia with 20 or 40 uM glutamate; confocal microscopy.
Test [3] has the same target. The test can be described thus: co-IP; anti-A2aR or anti-mGluR5 antibody (or IgG) on Protein A/G magnetic beads, lysate of primary rat microglia treated with chronic hypoxia, overnight at 4°C; Western blot.
The target of test [4] is A2aR-LgBit (UniProt P30543). Briefly: split reporter; HEK293ET cells cotransfected with mGluR5-SmBit and A2aR-LgBit plasmids, 48 h, Nano-Glo Live Cell Reagent, luminescence; saturation with rising plasmid concentrations; rising glutamate concentrations raised the signal.

No constants are given. Whether binding was seen depends on the method and setting. Binding seen in cells or lysates may run through a third protein. Some binding calls cover weakened binding; strength is not graded here.

Regarding “Adenosine A2A receptor (from UniProt P30543 1-410)”, in test [1], the binding result is reported as “binds”.

As to “mGluR5 (from UniProt P31424 21-1203) (receptor)”, the binding result in test [2] and in test [3] was “binds” throughout. Turning to “mGluR5-SmBit (from UniProt P31424 21-1203) (receptor)”, the binding entry in test [4] was “binds”.
